Laboratory results published in PubChem BioAssay AID504467 (National Center for Advancing Translational Sciences (NCATS), 2011).
Hit rate of the full screen: of about 330,000 compounds, about 7,700 (2.3%) were called active. The inconclusive results got no clear call from the source; some entries with a clear call stand among them for comparison. Calls come from the whole dose curve; as a rule, active = well fitted inhibition curve with a large enough effect; inconclusive = small, poorly fitted or top-dose-only effect, or effect the other way; inactive = flat fitted curve, though single readings scatter. A potency beside an inconclusive call is a rough fit, not a confirmed value.

Experiment: qHTS screen for small molecules that inhibit ELG1-dependent DNA repair in human embryonic kidney (HEK293T) cells expressing luciferase-tagged ELG1; note: nearly all actives have a fitted effect of over 55% in size
Details: HEK293T ELG1-luciferase reporter, luminescence, 16 h, DNA damage induced by 5-fluorouridine; series mostly up to 46.1 µM
How it was run: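 5-Fluorouridine DNA damage + compound/DMSO, 2,000 cells/well, 16 h, 37 °C/5% CO2. ONE-Glo, 30 min RT, luminescence. Readout = decrease in reporter signal.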
Potency is the fitted concentration of half-maximal effect.

Which Potency does the source give for `CCCOc1ccc(C(=O)N2CC3(CC(c4cccc(NC(=O)[C@@H]5CCC(=O)N5)c4)=NO3)C[C@H]2C(=O)NC2(C(N)=O)CC2)cc1` (stereo not given in full) here?
The Potency was “inactive”.

For `COc1ccc(CCC(=O)NCCS(=O)(=O)N2CCN(c3ccc(F)cc3)CC2)cc1`, which Potency is on record?
Its Potency is inconclusive: 25.9 µM [inhibitor, partial curve, poor fit].

With `Cc1ccc2[nH]c3c(c2c1)CCNC3=O` as the compound, how does the Potency read?
Its Potency is inconclusive: 23.1 µM [activator, partial curve].

Which Potency does the source give for `O=C(COC(=O)C1CC(=O)N(Cc2ccccc2)C1)Nc1ccc(Cl)cc1F` (stereo not given) here?
Its Potency is “inactive”.

For `Cc1ccc(N2CCN(C(=O)c3ccccc3NC(=O)/C=C\C(=O)O)CC2)cc1`, which Potency is on record?
Its Potency is inconclusive: 23.1 µM [activator, single point].

Which Potency does the source give for `Nc1c(Cl)ncnc1NCCc1ccc(O)cc1` here?
Its Potency is active: 10.3 µM.

With `CCOc1ccc(NC(=O)CN(C)C(=O)Cc2sc(C)nc2-c2ccc(F)cc2)cc1OCC` as the compound, how does the Potency read?
Its Potency is inconclusive: 14.6 µM [inhibitor, single point].

Which Potency does the source give for `COc1ccc(CCNS(=O)(=O)CCNC(=O)c2ccccc2)cc1` here?
Its Potency is inconclusive: 5.17 µM [activator, single point].

With `CC(=O)C1=C(O)C(=O)N(CCCN2CCOCC2)C1c1ccccc1[N+](=O)[O-]` (stereo not given) as the compound, how does the Potency read?
Its Potency is “inactive”.

With `O=C(CCSCc1cccc(F)c1)NCc1ccc(F)cc1` as the compound, how does the Potency read?
Its Potency is “inactive”.

For `Cc1ccc(NC(=O)N(Cc2cccs2)Cc2cc3cc4c(cc3[nH]c2=O)OCO4)cc1`, which Potency is on record?
Its Potency is active: 20.6 µM.

Which Potency does the source give for `O=C(NN=Cc1ccc(F)cc1)c1ccccc1NS(=O)(=O)c1cccs1` here?
Its Potency is inconclusive: 29.1 µM [inhibitor, single point].

Which Potency does the source give for `Nc1ccccc1NC(=O)c1ccccc1N` here?
Its Potency is “inactive”.

With `Cn1ncc([N+](=O)[O-])c1C(=O)Nc1ccc(Cl)cc1` as the compound, how does the Potency read?
The Potency was “inactive”.

With `Cc1cc(N2CCCCC2C)nc(-c2ccccc2O)n1` (stereo not given) as the compound, how does the Potency read?
The Potency was inconclusive: 3.26 µM [activator, single point].

For `Cc1[nH]n(-c2ccccc2)c(=O)c1N=Nc1nccs1`, which Potency is on record?
The Potency was inconclusive: 29.1 µM [activator, single point].

Which Potency does the source give for `Cc1cc([N+](=O)[O-])ccc1NC(=O)C(C)N1CCN(c2ccccn2)CC1` (stereo not given) here?
The Potency was “inactive”.

Which Potency does the source give for `COc1ccc(OC)c(/C=N\NC(=O)c2ccc(-c3ccccc3)cc2)c1` here?
The Potency was inconclusive: 29.1 µM [inhibitor, single point].

Which Potency does the source give for `Cc1ccc(S(=O)(=O)N2CCOCC2)cc1C(=O)N1CC(C)CC(C)C1` (stereo not given) here?
Its Potency is “inactive”.

For `NC(=O)c1cccc2c1C(=O)N(C1CCCCC1)C2`, which Potency is on record?
Its Potency is inconclusive: 7.31 µM [activator, partial curve].

Which Potency does the source give for `O=[N+]([O-])c1cc2c(c(CSc3ncccn3)c1)OCOC2` here?
The Potency was inconclusive: 16.4 µM [activator, partial curve].

For `Cc1ccc(C)c(COC(=O)c2cc([N+](=O)[O-])ccc2N2CCOCC2)c1`, which Potency is on record?
Its Potency is inconclusive: 23.1 µM [inhibitor, partial curve, poor fit].

For `Cc1ccc(C(=O)CC(=O)c2cc(Cl)ccc2O)cc1`, which Potency is on record?
Its Potency is inconclusive: 2.59 µM [activator, full curve].

For `Cc1ccc(C(C)NC(=O)c2cc3cc(Br)ccc3oc2=N)cc1` (stereo not given), which Potency is on record?
Its Potency is “inactive”.

Which Potency does the source give for `CCCCOc1ccccc1NC(=O)CC1Nc2ccccc2NC1=O` (stereo not given) here?
Its Potency is inconclusive: 23.1 µM [inhibitor, partial curve, poor fit].

For `CCCNC(=O)C(Cc1ccc(Br)cc1)NC(=O)c1ccc(C#N)cc1` (stereo not given), which Potency is on record?
Its Potency is “inactive”.

For `O=C(NCc1ccc2c(c1)OCO2)c1nc(S(=O)(=O)Cc2ccccc2F)ncc1Cl`, which Potency is on record?
Its Potency is “inactive”.

Which Potency does the source give for `COc1cc(NC(=O)Cn2ncc(Cl)c(Cl)c2=O)c(C)cc1[N+](=O)[O-]` here?
Its Potency is inconclusive: 29.1 µM [inhibitor, single point].

With `COc1ccc(S(=O)(=O)N(CC(=O)NCc2cccnc2)c2ccc(F)cc2)cc1OC` as the compound, how does the Potency read?
The Potency was inconclusive: 29.1 µM [inhibitor, single point].

With `O=Nc1c(O)[nH]c2ccc(F)cc12` as the compound, how does the Potency read?
The Potency was “inactive”.

For `CCOC(=O)c1nc(Nc2cc(Cl)ccc2OC)c2ccccc2n1`, which Potency is on record?
The Potency was inconclusive: 13 µM [inhibitor, partial curve, poor fit].

For `CCN1CCN(CCCNC(=O)c2ccc3c(c2)NC(=O)/C(=C\c2cccc(C)c2)S3)CC1`, which Potency is on record?
Its Potency is “inactive”.

With `CCCCN1C(=O)/C(=C2/Sc3ccccc3N2C)S/C1=N\c1ncn[nH]1` as the compound, how does the Potency read?
Its Potency is inconclusive: 4.11 µM [inhibitor, full curve, poor fit].

Which Potency does the source give for `CCCCn1c(N)c(N(CC(C)C)C(=O)c2cccc(S(=O)(=O)N3CCN(C)CC3)c2)c(=O)[nH]c1=O` here?
The Potency was inconclusive: 25.9 µM [activator, single point].

With `CCOc1ccc(CNC(=S)N/N=C/c2cccnc2)cc1` as the compound, how does the Potency read?
Its Potency is inconclusive: 25.9 µM [activator, partial curve, poor fit].

Which Potency does the source give for `O=C(OC1CCCCC1)c1ccc2c(c1)C1C=CCC1C(C(=O)O)N2` (stereo not given) here?
Its Potency is inconclusive: 13 µM [activator, partial curve].

For `COc1ccc(/C=N/c2oc(-c3ccccc3)cc2C#N)cc1`, which Potency is on record?
Its Potency is inconclusive: 29.1 µM [activator, single point].

For `COc1ccc(OC)c(NC(=O)C2C3C=CC(C3)C2C(=O)NCc2ccccn2)c1` (stereo not given), which Potency is on record?
Its Potency is inconclusive: 1.26 µM [inhibitor, single point].

With `O=C(c1ccco1)N1CCN(C(=O)c2cc(-c3ccccc3)nc3ccccc23)CC1` as the compound, how does the Potency read?
The Potency was inconclusive: 8.2 µM [inhibitor, partial curve, poor fit].

Which Potency does the source give for `CN(C)c1nccc(NCc2ccccc2)c1C#N` here?
The Potency was inconclusive: 29.1 µM [activator, single point].

Which Potency does the source give for `CC1=CC(C)(C)[N+](C)(C)c2ccccc21` here?
Its Potency is “inactive”.

With `C[C@H]1CN([C@@H](C)CO)C(=O)Cc2cc(NC(=O)CCC(F)(F)F)ccc2O[C@H]1CN(C)Cc1ccc(-c2ccccc2)cc1` as the compound, how does the Potency read?
Its Potency is inconclusive: 18.3 µM [inhibitor, single point].

Which Potency does the source give for `CC(=O)c1ccc(Oc2cc(C)nc(NCc3ccccc3)n2)cc1` here?
The Potency was inconclusive: 20.6 µM [inhibitor, single point].

For `CCCC(=O)NCCCc1nc2ccccc2n1C`, which Potency is on record?
The Potency was “inactive”.

With `O=C(Nc1ccc(S(=O)(=O)Nc2ncccn2)cc1)C1=COCCO1` as the compound, how does the Potency read?
The Potency was “inactive”.

Which Potency does the source give for `OC(CN(c1ccccc1)c1ccccc1)Cn1cnc2ccccc21` (stereo not given) here?
Its Potency is inconclusive: 20.6 µM [inhibitor, single point].

For `Cc1ccccc1NC(=O)OCc1ccccc1`, which Potency is on record?
The Potency was inconclusive: 12.6 µM [activator, partial curve, poor fit].

With `CN(C)CCCN(Cc1cc2cc3c(cc2[nH]c1=O)OCO3)C(=S)Nc1cccc(Cl)c1` as the compound, how does the Potency read?
The Potency was “inactive”.

Which Potency does the source give for `CCOc1cccc(-c2c(C(=O)N/N=C(\C)c3cccs3)nnn2-c2nonc2N)c1` here?
Its Potency is active: 16.4 µM.

With `CC(=O)c1ccc(NC(=O)C(C)n2nc(-c3ccccc3)c3cc(Cl)ccc32)cc1` (stereo not given) as the compound, how does the Potency read?
The Potency was inconclusive: 29.1 µM [inhibitor, single point].

Which Potency does the source give for `C=C(C)CNc1cc(S(=O)(=O)N2CCOCC2)ccc1Oc1ccccc1` here?
Its Potency is inconclusive: 3.98 µM [inhibitor, partial curve].

With `CCn1ncc(C(=O)Nc2cccc(Cl)c2)c1C` as the compound, how does the Potency read?
Its Potency is inconclusive: 10.3 µM [activator, partial curve].

With `CCOC(=O)c1cc(C#N)c(N2CCCC2)nc1-c1ccccc1` as the compound, how does the Potency read?
Its Potency is inconclusive: 16.4 µM [inhibitor, partial curve].

With `Nc1nnc(SCC(=O)Nc2ccc3nc(SCC(=O)Nc4ccccc4)sc3c2)s1` as the compound, how does the Potency read?
Its Potency is active: 1.84 µM.

For `COc1ccccc1/C=C(/CC(=O)NCc1ccc(F)cc1)c1nc2ccccc2s1`, which Potency is on record?
Its Potency is inconclusive: 16.4 µM [inhibitor, single point].

With `CC(=O)Oc1ccc(N(C(C)=O)S(=O)(=O)c2ccc3ccccc3c2)cc1Br` as the compound, how does the Potency read?
Its Potency is inconclusive: 16.4 µM [inhibitor, partial curve].

Which Potency does the source give for `Cc1ccc(NC(=O)C2CC(=O)N/C(=N/N=C/c3ccco3)S2)cc1` (stereo not given) here?
Its Potency is inconclusive: 18.4 µM [activator, partial curve, poor fit].

Which Potency does the source give for `Cn1nnnc1SCc1nnc(-c2ccc(F)cc2)o1` here?
Its Potency is inconclusive: 23.1 µM [activator, partial curve].

For `CC(C)CC(=O)NC(=S)Nc1nc(-c2ccccc2)cs1`, which Potency is on record?
Its Potency is inconclusive: 18.4 µM [activator, partial curve, poor fit].

For `N/C(=N\OC(=O)COc1ccccc1)c1ccncc1`, which Potency is on record?
Its Potency is inconclusive: 20.6 µM [activator, partial curve].

Which Potency does the source give for `O=C(Nc1ccccc1N1CCN(C(=O)c2ccc(Cl)cc2)CC1)c1ccc2c(c1)OCO2` here?
Its Potency is active: 16.4 µM.

With `Cc1cc(=O)[nH]c(/N=C(\N)Nc2ccc3c(c2)OCCO3)n1` as the compound, how does the Potency read?
The Potency was “inactive”.

With `CCOc1ccc(-c2cnc3ccccc3n2)cc1` as the compound, how does the Potency read?
The Potency was inconclusive: 0.517 µM [activator, full curve].

With `O=C(Nc1ccc(F)c(Cl)c1)C1CC(=O)n2c(nc3ccccc32)N1` (stereo not given) as the compound, how does the Potency read?
The Potency was “inactive”.

For `CC(=O)CSc1nc2ccccc2s1`, which Potency is on record?
The Potency was inconclusive: 16.4 µM [activator, partial curve].

With `Cc1cccc(N(C(=O)Cn2nnc3ccccc32)C(C(=O)NC(C)(C)C)c2ccsc2)c1C` (stereo not given) as the compound, how does the Potency read?
Its Potency is inconclusive: 10.3 µM [activator, partial curve].

With `CC(Sc1c[nH]c2ccccc12)C(=O)O` (stereo not given) as the compound, how does the Potency read?
The Potency was “inactive”.

With `COc1cc2nc(SCc3c(C)noc3C)n(CCC3=CCCCC3)c(=O)c2cc1OC` as the compound, how does the Potency read?
Its Potency is inconclusive: 4.61 µM [inhibitor, partial curve, poor fit].

For `COc1ccc(NCc2nc3ccccc3n2CCOc2ccccc2)cc1`, which Potency is on record?
Its Potency is inconclusive: 20.6 µM [activator, single point].

For `O=[N+]([O-])c1cccc(-c2nc(N3CCOCC3)c3ccccc3n2)c1`, which Potency is on record?
Its Potency is inconclusive: 29.1 µM [inhibitor, single point].
